# Results published in the supplement of paper PMC8728848.
# The other results are listed elsewhere or left out.
# B1: RbmA (Vibrio cholerae), A0A2H4NFB8 (protein)
# chain: MSNFKGSIMNKRHYYLASCLALLFSTASYAEVDCELQPVIEANLSLNQNQLASNGGYISSQLGIRNESCETVKFKYWLSIKGPEGIYFPAKAVVGVDTAQQESDALTDGRMLNVTRGFWVPEYMADGKYTVSLQVVAENGEVFKANQEFVKGGDLNSLPELNGLTIDIKNQFGINSVESTGGFVPFTIDLNNGREGEAKVEFWMTAVGPDGLIIPVHSREKWMIIAGNTFSKVRGINFDKSYPAGEYTINAQVVDIVSGERVEQLMTVVKK
# Assays:
# Assay in all cases: glycan array binding signal (z-score within array); higher = stronger binding
# Details in all cases: glycan notation: IUPAC condensed, linker removed
# [1] = molecular target: Fuc(a1-2)Gal(b1-4)GlcNAc(b1-3)Gal(b1-4)GlcNAc(b1-2)Man(a1-3)[Fuc(a1-2)Gal(b1-4)GlcNAc(b1-3)Gal(b1-4)GlcNAc(b1-2)Man(a1-6)]Man(b1-4)GlcNAc(b1-4)GlcNAc
# In short: (§1)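 Negative Z-scores can be read as non-binding. The Z-score is calculated within each array and then averaged across arrays of one protein sequence at different concentrations or buffers and across linkers. Arrays, 3228 in all, were curated from the Consortium for Functional Glycomics database and kept only where the protein sequence was available.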
# [2] = molecular target: Fuc(a1-2)Gal(b1-4)GlcNAc(b1-3)Gal(b1-4)GlcNAc(b1-3)Gal(b1-4)GlcNAc
# In short: as §1
# [3] = molecular target: Fuc(a1-2)Gal(b1-4)GlcNAc(b1-3)GalNAc
# In short: as §1
# [4] = molecular target: Fuc(a1-2)Gal(b1-4)GlcNAc(b1-3)[Fuc(a1-2)Gal(b1-4)GlcNAc(b1-6)]GalNAc
# In short: as §1
# [5] = molecular target: Fuc(a1-2)Gal(b1-4)GlcNAc(b1-3)[Fuc(a1-3)[Gal(b1-4)]GlcNAc(b1-6)]Gal(b1-4)Glc
# In short: as §1
# [6] = molecular target: Fuc(a1-2)Gal(b1-4)GlcNAc(b1-6)GalNAc
# In short: as §1
# [7] = molecular target: Fuc(a1-2)Gal(b1-4)GlcNAc6S
# In short: as §1
# [8] = molecular target: Fuc(a1-2)Gal(b1-4)[Fuc(a1-3)]GlcNAc
# In short: as §1
# [9] = molecular target: Fuc(a1-2)Gal(b1-4)[Fuc(a1-3)]GlcNAc(b1-2)Man(a1-3)[Fuc(a1-2)Gal(b1-4)[Fuc(a1-3)]GlcNAc(b1-2)Man(a1-6)]Man(b1-4)GlcNAc(b1-4)[Fuc(a1-6)]GlcNAc
# In short: as §1
# [10] = molecular target: Fuc(a1-2)Gal(b1-4)[Fuc(a1-3)]GlcNAc(b1-2)[Fuc(a1-2)Gal(b1-4)[Fuc(a1-3)]GlcNAc(b1-4)]Man(a1-3)[Fuc(a1-2)Gal(b1-4)[Fuc(a1-3)]GlcNAc(b1-2)Man(a1-6)]Man(b1-4)GlcNAc(b1-4)GlcNAc
# In short: as §1
# [11] = molecular target: Fuc(a1-2)Gal(b1-4)[Fuc(a1-3)]GlcNAc(b1-3)Gal(b1-4)[Fuc(a1-3)]GlcNAc
# In short: as §1
# [12] = molecular target: Fuc(a1-2)Gal(b1-4)[Fuc(a1-3)]GlcNAc(b1-3)Gal(b1-4)[Fuc(a1-3)]GlcNAc(b1-3)Gal(b1-4)[Fuc(a1-3)]GlcNAc
# In short: as §1
# [13] = molecular target: Fuc(a1-2)Gal(b1-4)[Fuc(a1-3)]GlcNAc(b1-3)GalNAc
# In short: as §1
# [14] = molecular target: Fuc(a1-2)Gal(b1-4)[Fuc(a1-3)]GlcNAc(b1-3)[Neu5Ac(a2-6)Gal(b1-4)GlcNAc(b1-6)]Gal(b1-4)Glc
# In short: as §1
# [15] = molecular target: Fuc(a1-2)Gal6S(b1-3)GlcNAc
# In short: as §1
# [16] = molecular target: Fuc(a1-2)Gal6S(b1-3)GlcNAc6S
# In short: as §1
# Fuc(a1-2)Gal6S(b1-4)Glc = molecular target: Fuc(a1-2)Gal6S(b1-4)Glc
# In short: as §1
# [17] = molecular target: Fuc(a1-2)Gal6S(b1-4)Glc6S
# In short: as §1
# [18] = molecular target: Fuc(a1-2)Gal6S(b1-4)GlcNAc
# In short: as §1
# Fuc(a1-2)[Gal(a1-3)]Gal = molecular target: Fuc(a1-2)[Gal(a1-3)]Gal
# In short: as §1
# [19] = molecular target: Fuc(a1-2)[Gal(a1-3)]Gal(b1-3)GalNAc
# In short: as §1
# [20] = molecular target: Fuc(a1-2)[Gal(a1-3)]Gal(b1-3)GalNAc(b1-3)Gal(a1-4)Gal(b1-4)Glc
# In short: as §1
# [21] = molecular target: Fuc(a1-2)[Gal(a1-3)]Gal(b1-3)GlcNAc
# In short: as §1
# [22] = molecular target: Fuc(a1-2)[Gal(a1-3)]Gal(b1-3)GlcNAc(b1-2)Man(a1-3)[Fuc(a1-2)[Gal(a1-3)]Gal(b1-3)GlcNAc(b1-2)Man(a1-6)]Man(b1-4)GlcNAc(b1-4)GlcNAc
# In short: as §1
# [23] = molecular target: Fuc(a1-2)[Gal(a1-3)]Gal(b1-3)GlcNAc(b1-2)Man(a1-3)[Fuc(a1-2)[Gal(a1-3)]Gal(b1-3)GlcNAc(b1-2)Man(a1-6)]Man(b1-4)GlcNAc(b1-4)[Fuc(a1-6)]GlcNAc
# In short: as §1
# [24] = molecular target: Fuc(a1-2)[Gal(a1-3)]Gal(b1-3)GlcNAc(b1-3)GalNAc
# In short: as §1
# [25] = molecular target: Fuc(a1-2)[Gal(a1-3)]Gal(b1-3)GlcNAc(b1-6)GalNAc
# In short: as §1
# [26] = molecular target: Fuc(a1-2)[Gal(a1-3)]Gal(b1-4)Glc
# In short: as §1
# [27] = molecular target: Fuc(a1-2)[Gal(a1-3)]Gal(b1-4)GlcNAc
# In short: as §1
# [28] = molecular target: Fuc(a1-2)[Gal(a1-3)]Gal(b1-4)GlcNAc(b1-2)Man
# In short: as §1
binder,measurement,setting,value
B1,glycan array binding signal (z-score),[1],1.1
same,glycan array binding signal (z-score),[2],-0.524
same,glycan array binding signal (z-score),[3],0.523
same,glycan array binding signal (z-score),[4],0.169
same,glycan array binding signal (z-score),[5],-1.04
same,glycan array binding signal (z-score),[6],0.02
same,glycan array binding signal (z-score),[7],-0.371
same,glycan array binding signal (z-score),[8],-1.15
same,glycan array binding signal (z-score),[9],-0.252
same,glycan array binding signal (z-score),[10],1.06
same,glycan array binding signal (z-score),[11],-1.17
same,glycan array binding signal (z-score),[12],-0.125
same,glycan array binding signal (z-score),[13],1.05
same,glycan array binding signal (z-score),[14],2.62
same,glycan array binding signal (z-score),[15],-1.11
same,glycan array binding signal (z-score),[16],1.54
same,glycan array binding signal (z-score),Fuc(a1-2)Gal6S(b1-4)Glc,-0.179
same,glycan array binding signal (z-score),[17],1.18
same,glycan array binding signal (z-score),[18],-0.22
same,glycan array binding signal (z-score),Fuc(a1-2)[Gal(a1-3)]Gal,-0.705
same,glycan array binding signal (z-score),[19],-0.446
same,glycan array binding signal (z-score),[20],0.168
same,glycan array binding signal (z-score),[21],1.13
same,glycan array binding signal (z-score),[22],-1.34
same,glycan array binding signal (z-score),[23],-0.144
same,glycan array binding signal (z-score),[24],0.632
same,glycan array binding signal (z-score),[25],-0.084
same,glycan array binding signal (z-score),[26],0.471
same,glycan array binding signal (z-score),[27],-0.42
same,glycan array binding signal (z-score),[28],-0.762

# In another format: results already given.
binder	measurement	setting	value
B1	glycan array binding signal (z-score)	[11]	-1.17
same	glycan array binding signal (z-score)	[20]	0.168
